This is one part of the list. These are further read-outs of the screen, such as a control signal, another cell line or another target. No call is given for them. The list favours compounds with an active or inconclusive main result. Potencies come from curve fits of mixed quality, noted in brackets.
Experiment: qHTS Assay for Identifying the Cell-Membrane Permeable IMPase Inhibitors
Conditions: CHO-M1 cells, IP1 accumulation, HTRF TR-FRET ratio; measured here: donor channel 620 nm AC50

Question: With `COc1ccc2nc(C)cc(Nc3ccc(Cl)c(Cl)c3)c2c1` as the compound, how does the AC50 read?
Answer: 25100 nM [falling, single point]

Question: Which AC50 does the source give for `C=CCn1c(=O)c(C(=O)NCCc2ccccc2)c(O)c2ccccc21` here?
Answer: 15800 nM [falling, partial curve]

Question: Which AC50 does the source give for `CCOc1ccc(C2C(=O)N(C3CCCCC3)CC(=O)N2CC2CCCO2)cc1OC` (stereo unspecified) here?
Answer: 31600 nM [falling, single point]

Question: With `N=c1oc2ccccc2cc1-c1nc2ccccc2c(=O)[nH]1` as the compound, how does the AC50 read?
Answer: 31600 nM [rising, single point]

Question: For `O=C(C1CCCN(S(=O)(=O)c2ccc(Br)s2)C1)N1CCN(c2ccccc2F)CC1` (stereo unspecified), which AC50 is on record?
Answer: 31600 nM [falling, single point]

Question: With `Nc1nnnn1/N=C/c1cccc(OCc2ccccc2Cl)c1` as the compound, how does the AC50 read?
Answer: 200 nM [falling, single point]

Question: For `Cc1nnc(NC(=O)CSc2nc(C(C)C)nc3ccccc23)s1`, which AC50 is on record?
Answer: 5620 nM [rising, single point]

Question: With `Brc1ccc2ncnc(NCc3ccccc3)c2c1` as the compound, how does the AC50 read?
Answer: 501 nM [falling, full curve, poor fit]

Question: Which AC50 does the source give for `O=C(Cc1coc(-c2ccc(F)cc2)n1)N1CCOCC1` here?
Answer: 6310 nM [falling, single point]

Question: For `CCC(=Nc1ccc(N)cc1)C1=C(O)C(C(=O)OC)C(C)(C)CC1=O` (stereo unspecified), which AC50 is on record?
Answer: 12600 nM [falling, partial curve]

Question: For `O=C(O)c1ccc(NC(=O)c2ccc(Br)c(S(=O)(=O)N3CCCC3)c2)cc1`, which AC50 is on record?
Answer: 15800 nM [falling, single point]

Question: With `Cn1c(C(=O)OCC(=O)NCc2cccs2)cc2sccc21` as the compound, how does the AC50 read?
Answer: 316 nM [rising, full curve, poor fit]

Question: Which AC50 does the source give for `Cc1cccc(CN2C(=O)N/C(=C/c3cc(C)n(-c4cc(C)ccn4)c3C)C2=O)c1` here?
Answer: 31.6 nM [falling, full curve, poor fit]

Question: Which AC50 does the source give for `CCS(=O)(=O)Nc1ccc(-c2nnc(SCC(=O)c3cccc(OC)c3)o2)cc1` here?
Answer: 1000 nM [falling, full curve, poor fit]

Question: Which AC50 does the source give for `CN(c1cccc(NC(=O)Nc2ccc(Cl)cc2)c1)S(C)(=O)=O` here?
Answer: 3.98 nM [rising, full curve, poor fit]

Question: For `CC(=O)CC(C)(C)S(=O)(=O)c1ccc(Oc2ccc(S(=O)(=O)C(C)(C)CC(C)=O)cc2)cc1`, which AC50 is on record?
Answer: 316 nM [falling, single point]

Question: For `Cc1cc(NC(=O)CSc2nnc(CNc3ccc(F)cc3)n2C2CCCCC2)no1`, which AC50 is on record?
Answer: 501 nM [falling, partial curve]

Question: For `Cc1ccc(Cl)cc1NC(=O)CSc1nnc(C)n1-c1ccccc1`, which AC50 is on record?
Answer: 79.4 nM [rising, full curve]

Question: With `CCNC(=O)CC1SC(=Nc2ccccc2C)N(C)C1=O` (stereo unspecified) as the compound, how does the AC50 read?
Answer: 25.1 nM [falling, full curve]

Question: Which AC50 does the source give for `O=S(=O)(c1ccccc1)c1nc(-c2ccccc2F)oc1N1CCOCC1` here?
Answer: 3550 nM [falling, single point]

Question: For `COCCCNC(=O)Cn1nnc(-c2ccc(NC(=O)c3ccc(F)cc3)cc2)n1`, which AC50 is on record?
Answer: 79.4 nM [falling, full curve, poor fit]

Question: For `CC(=O)c1c(COC(=O)c2ccncc2)nc2ccccc2[n+]1[O-]`, which AC50 is on record?
Answer: 794 nM [falling, full curve, poor fit]

Question: For `Cc1cc(NCCCN2CCOCC2)n2ncc(-c3ccccc3)c2n1`, which AC50 is on record?
Answer: 631 nM [rising, full curve, poor fit]

Question: Which AC50 does the source give for `CC(=O)C(C)Oc1ccc2c3c(c(=O)oc2c1C)CCCC3` (stereo unspecified) here?
Answer: 2510 nM [falling, full curve, poor fit]

Question: With `Cc1nc2ccccc2c2oc(C(=O)NCCCN3CCCC3=O)cc12` as the compound, how does the AC50 read?
Answer: 35500 nM [falling, single point]

Question: Which AC50 does the source give for `O=C(c1ccccc1)N1CCN(CC2CC=CCC2)CC1` (stereo unspecified) here?
Answer: 2240 nM [falling, full curve, poor fit]

Question: Which AC50 does the source give for `COc1ccnc(N2CCN(c3ccccc3)CC2)c1C#N` here?
Answer: 6310 nM [falling, single point]

Question: For `COc1ccc(NC(=O)C2CCCN2C(=O)NCc2ccccc2)cc1OC` (stereo unspecified), which AC50 is on record?
Answer: 1580 nM [rising, partial curve, poor fit]

Question: For `Cc1c(C(=O)O)sc2ncnc(N3CCCCC3C)c12` (stereo unspecified), which AC50 is on record?
Answer: 15800 nM [rising, single point]

Question: With `COc1ccc(C2c3c(-c4ccc(F)cc4)n[nH]c3C(=O)N2c2ccccc2)cc1OC` (stereo unspecified) as the compound, how does the AC50 read?
Answer: 282 nM [falling, full curve, poor fit]

Question: Which AC50 does the source give for `Clc1ccccc1Oc1cnc2ccccc2n1` here?
Answer: 3.98 nM [rising, full curve, poor fit]

Question: For `CCOC(=O)C1CCCN(C(=O)CNS(=O)(=O)c2ccc(Br)s2)C1` (stereo unspecified), which AC50 is on record?
Answer: 25100 nM [falling, single point]

Question: For `O=C(Nc1c(C(=O)C2CC2)oc2ccccc12)c1ccc(Cl)cc1`, which AC50 is on record?
Answer: 5620 nM [rising, single point]

Question: With `CC1CCN(S(=O)(=O)c2cn(CC(=O)Nc3ccc(F)cc3)c(=O)c3ccccc23)CC1` as the compound, how does the AC50 read?
Answer: 35500 nM [rising, single point]

Question: Which AC50 does the source give for `O=c1cc(-c2cccc(O)c2)oc2c(O)c(O)ccc12` here?
Answer: 25100 nM [falling, partial curve, poor fit]

Question: For `COC(=O)c1cccc(NC(=O)c2ccco2)c1`, which AC50 is on record?
Answer: 501 nM [falling, full curve]

Question: For `Cc1cc(C)n2c(Nc3cccc(C(F)(F)F)c3)c(-c3ccsc3)nc2n1`, which AC50 is on record?
Answer: 141 nM [falling, full curve, poor fit]

Question: For `O=C(c1ccc(Cl)c(S(=O)(=O)N2CCOCC2)c1)N1CCN(Cc2ccccc2)CC1`, which AC50 is on record?
Answer: 158 nM [falling, full curve, poor fit]

Question: With `O=c1[nH]c2cc(Cl)ccc2c(O)c1-c1ccc(Oc2ccccc2)cc1` as the compound, how does the AC50 read?
Answer: 2.51 nM [rising, full curve, poor fit]

Question: For `CCc1nnc(NC(=O)CSc2nc3c(cc2C#N)CCCC3)s1`, which AC50 is on record?
Answer: 31600 nM [rising, single point]

Question: For `CC(=O)c1cccc(N=C2C(=O)Nc3ccccc32)c1`, which AC50 is on record?
Answer: 3980 nM [rising, single point]

Question: For `COc1ccc(Cn2c(-c3ccc(OC)cc3)nc3c(c(=O)c4ccccc4n3C)c2=O)cc1`, which AC50 is on record?
Answer: 28200 nM [rising, single point]

Question: With `CC1=C(C(N)=O)C(c2ccncc2)n2nc(-c3ccccc3Cl)nc2N1` (stereo unspecified) as the compound, how does the AC50 read?
Answer: 355 nM [rising, single point]

Question: Which AC50 does the source give for `Cc1cc(N2C(=O)C(O)=C(C(=O)c3ccc(C)o3)C2c2cccs2)no1` (stereo unspecified) here?
Answer: 15800 nM [rising, partial curve]

Question: With `CCCC(=O)Nc1ccc(-c2nc3cc(C)c(C)cc3o2)c(O)c1` as the compound, how does the AC50 read?
Answer: 3160 nM [falling, single point]

Question: For `O=C(CN1CCN(S(=O)(=O)c2ccc(F)cc2)CC1)Nc1cc(C(F)(F)F)ccc1Cl`, which AC50 is on record?
Answer: 12.6 nM [rising, full curve, poor fit]

Question: With `CCN(CC)S(=O)(=O)c1ccc(OC)c(NC(=O)COc2ccc3c(C)cc(=O)oc3c2)c1` as the compound, how does the AC50 read?
Answer: 35500 nM [rising, partial curve]

Question: For `CCC1CCCCN1C(=O)Cn1c(=O)n(CCC(=O)NCc2ccco2)c(=O)c2sccc21` (stereo unspecified), which AC50 is on record?
Answer: 398 nM [rising, full curve, poor fit]

Question: Which AC50 does the source give for `COc1ccc(C(=O)NC2CCN(CC(=O)Nc3cccc(C)c3)CC2)cc1OC` here?
Answer: 200 nM [rising, single point]

Question: For `CCOc1ccc(-c2nnn(CC(=O)NCc3cccs3)n2)cc1`, which AC50 is on record?
Answer: 1260 nM [rising, full curve, poor fit]

Question: For `COc1ccc2c(c1)CCCC21NC(=O)NC1=O` (stereo unspecified), which AC50 is on record?
Answer: 5010 nM [rising, single point]

Question: For `COc1ccc(C2=CC(c3ccc(OC)c(OC)c3)NC(=S)N2)cc1` (stereo unspecified), which AC50 is on record?
Answer: 50.1 nM [rising, partial curve, poor fit]

Question: For `O=[N+]([O-])c1ccc(N2CCCC2)cc1NC(c1ccccc1)c1ccccc1`, which AC50 is on record?
Answer: 794 nM [rising, full curve, poor fit]

Question: With `Cc1c(O)c(CN2CCCC2)cc2c3c(c(=O)oc12)CCC3` as the compound, how does the AC50 read?
Answer: 12600 nM [falling, single point]

Question: For `O=C1CC(N2CCCc3ccccc32)C(=O)N1c1ccccc1Cl` (stereo unspecified), which AC50 is on record?
Answer: 31600 nM [falling, single point]

Question: With `CCc1c(C)c2cc(Cl)c(O)c(CN(CC)CC)c2oc1=O` as the compound, how does the AC50 read?
Answer: 3160 nM [rising, single point]

Question: For `COC(=O)c1ccc(CSc2nnc3c(Cl)cc(Cl)cn23)o1`, which AC50 is on record?
Answer: 89.1 nM [falling, full curve, poor fit]

Question: For `O=C(NCc1cccnc1)NC1(C(F)(F)F)Oc2ccccc2O1`, which AC50 is on record?
Answer: 158 nM [falling, full curve, poor fit]

Question: For `O=C1C2CCCN2C(c2ccccc2)N1c1ccc(Cl)cc1` (stereo unspecified), which AC50 is on record?
Answer: 631 nM [rising, partial curve]

Question: With `Cc1nnsc1NC(=O)OCC(C)(C)C` as the compound, how does the AC50 read?
Answer: 12.6 nM [rising, full curve, poor fit]

Question: With `COc1ccc(Cl)cc1C(=O)NCC(C)C` as the compound, how does the AC50 read?
Answer: 3160 nM [falling, full curve]

Question: With `CCc1ccc(C(C)NC(=O)Cn2cnc3c(=O)n(C)c(=O)n(C)c32)cc1` (stereo unspecified) as the compound, how does the AC50 read?
Answer: 15800 nM [falling, single point]

Question: Which AC50 does the source give for `COc1ccc(C(NC(=O)c2cccc(F)c2)c2ccccc2)cc1` (stereo unspecified) here?
Answer: 141 nM [falling, full curve, poor fit]

Question: With `CCOC(=O)C1=NN(c2ccc(Cl)cc2)C(c2ccccc2)CC1=O` (stereo unspecified) as the compound, how does the AC50 read?
Answer: 1000 nM [falling, full curve]

Question: With `CC(=O)Nc1c(C#N)c(C(C)(C)C)cn1C` as the compound, how does the AC50 read?
Answer: 562 nM [falling, full curve]

Question: With `COc1ccc(OC)c(NC(=O)C(=O)/C=C(\O)c2cc(OC)ccc2OC)c1` as the compound, how does the AC50 read?
Answer: 3980 nM [rising, full curve, poor fit]
